{"source": "PubChem BioAssay AID1259284 (Sanger Institute, 2017)", "aim": "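Kinase knock-downs that cut colorectal cancer cell growth alone or with targeted drugs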 (primary screen)", "cell system": "SW48 human colorectal cancer cells", "reagent": "siRNA pool against human genes", "challenge": "anchor drug BYL719 at 1 µM, cetuximab at 5 µg/ml or trametinib at 10 nM, or DMSO vehicle alone", "read-out": "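Cell viability relative to non-targeting pool wells, replicate mean, with robust z-scores and drug synergy scores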", "direction": "robust z-score, no drug: higher = more cells survive knock-down", "call rule": "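a knock-down is essential if viability without drug gives a robust z-score under -3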", "calls": "active = essential without drug; inactive = no change without drug", "note": "The whole screen tested 794 reagents; shown is a random part of them. Of all reagents, 16 (2%) are marked active. 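Calls concern knock-down without drug only; drug synergy was judged apart, with scores above 0.15 taken as synergy.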 Unmarked entries are inactive. Further read-outs or replicates are left out here. The record does not give: the amount of reagent, the time to read-out."}
{"Gene":"GRK3","robust z-score, no drug":0.426}
{"Gene":"EPHA3","robust z-score, no drug":-0.295}
{"Gene":"CDKN1A","robust z-score, no drug":0.426}
{"Gene":"ADCK2","robust z-score, no drug":0.426}
{"Gene":"AK5","robust z-score, no drug":0.343}
{"Gene":"PNKP","robust z-score, no drug":0.354}
{"Gene":"NEK6","robust z-score, no drug":0.426}
{"Gene":"TNIK","robust z-score, no drug":0.426}
{"Gene":"STK16","robust z-score, no drug":0.426}
{"Gene":"DYRK1B","robust z-score, no drug":0.426}
{"Gene":"TRPM6","robust z-score, no drug":0.426}
{"Gene":"CDK12","robust z-score, no drug":-0.812}
{"Gene":"EPHA6","robust z-score, no drug":"-4.44 (active)"}
{"Gene":"PAPSS1","robust z-score, no drug":0.426}
{"Gene":"UCK2","robust z-score, no drug":0.426}
{"Gene":"CHD9","robust z-score, no drug":-0.941}
{"Gene":"ACVRL1","robust z-score, no drug":0.426}
{"Gene":"RAF1","robust z-score, no drug":0.426}
{"Gene":"OXSR1","robust z-score, no drug":-0.73}

Laid out differently: entries from further up
NEK6 → robust z-score, no drug: 0.426
TNIK → robust z-score, no drug: 0.426
STK16 → robust z-score, no drug: 0.426
